Results reported in publication PMC5342242.
No constants are given. Whether binding was seen depends on the method and setting. Some binding calls cover weakened binding; strength is not graded here.

Amino acid sequences for entries named in this document (tags omitted).
UniProt P10443: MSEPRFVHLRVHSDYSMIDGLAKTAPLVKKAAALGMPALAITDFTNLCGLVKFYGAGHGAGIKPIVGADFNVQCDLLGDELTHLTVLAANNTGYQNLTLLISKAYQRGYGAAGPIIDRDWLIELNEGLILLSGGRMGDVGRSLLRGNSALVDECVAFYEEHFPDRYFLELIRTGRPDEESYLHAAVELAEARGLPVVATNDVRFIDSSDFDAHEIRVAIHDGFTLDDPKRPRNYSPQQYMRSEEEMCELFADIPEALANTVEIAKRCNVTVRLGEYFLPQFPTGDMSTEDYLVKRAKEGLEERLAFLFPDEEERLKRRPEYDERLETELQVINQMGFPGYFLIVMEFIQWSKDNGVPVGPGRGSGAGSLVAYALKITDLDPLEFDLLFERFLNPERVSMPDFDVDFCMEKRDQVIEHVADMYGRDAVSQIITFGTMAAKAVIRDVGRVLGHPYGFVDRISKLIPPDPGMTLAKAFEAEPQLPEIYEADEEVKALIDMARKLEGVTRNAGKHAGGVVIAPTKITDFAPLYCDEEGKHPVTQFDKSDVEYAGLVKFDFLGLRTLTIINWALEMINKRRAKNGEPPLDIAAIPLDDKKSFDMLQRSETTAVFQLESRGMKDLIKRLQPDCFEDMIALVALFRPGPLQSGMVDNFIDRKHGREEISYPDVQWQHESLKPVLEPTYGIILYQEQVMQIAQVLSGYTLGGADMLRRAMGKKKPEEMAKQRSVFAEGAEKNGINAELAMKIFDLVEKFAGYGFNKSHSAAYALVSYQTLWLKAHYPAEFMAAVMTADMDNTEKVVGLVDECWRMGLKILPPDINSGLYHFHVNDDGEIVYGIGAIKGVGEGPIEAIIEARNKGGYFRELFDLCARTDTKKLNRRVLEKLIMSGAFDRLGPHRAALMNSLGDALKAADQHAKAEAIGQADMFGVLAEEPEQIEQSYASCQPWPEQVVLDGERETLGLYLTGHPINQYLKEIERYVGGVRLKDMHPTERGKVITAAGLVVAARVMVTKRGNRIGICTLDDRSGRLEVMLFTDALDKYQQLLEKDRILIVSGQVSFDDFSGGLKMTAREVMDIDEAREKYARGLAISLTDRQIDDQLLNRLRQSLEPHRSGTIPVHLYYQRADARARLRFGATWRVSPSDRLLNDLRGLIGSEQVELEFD
UniProt P0AG11: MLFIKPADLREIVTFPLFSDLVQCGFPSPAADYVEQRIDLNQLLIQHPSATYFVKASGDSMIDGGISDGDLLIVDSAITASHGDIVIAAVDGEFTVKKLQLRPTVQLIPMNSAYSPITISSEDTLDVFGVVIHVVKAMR

Target: DNA polymerase III α subunit, full-length (E. coli) (UniProt P10443)
Experiment: FRET or BRET; α labeled with Alexa Fluor 647 C2-maleimide (acceptor) and β labeled with Alexa Fluor 488 C5-maleimide (donor); purified UmuD variants added to 40 μM; both purified

- binding: binds
Substance: wild-type UmuD (from UniProt P0AG11 1-139)
